From PMC10003010, “A Unique In Vitro Assay to Investigate ABCB4 Transport Function” (International Journal of Molecular Sciences, 2023)

Chains of the proteins cited; added tags and fusions are not shown. Residues count along the entry.
UniProt P21439, 1-1279 isoform P21439-2: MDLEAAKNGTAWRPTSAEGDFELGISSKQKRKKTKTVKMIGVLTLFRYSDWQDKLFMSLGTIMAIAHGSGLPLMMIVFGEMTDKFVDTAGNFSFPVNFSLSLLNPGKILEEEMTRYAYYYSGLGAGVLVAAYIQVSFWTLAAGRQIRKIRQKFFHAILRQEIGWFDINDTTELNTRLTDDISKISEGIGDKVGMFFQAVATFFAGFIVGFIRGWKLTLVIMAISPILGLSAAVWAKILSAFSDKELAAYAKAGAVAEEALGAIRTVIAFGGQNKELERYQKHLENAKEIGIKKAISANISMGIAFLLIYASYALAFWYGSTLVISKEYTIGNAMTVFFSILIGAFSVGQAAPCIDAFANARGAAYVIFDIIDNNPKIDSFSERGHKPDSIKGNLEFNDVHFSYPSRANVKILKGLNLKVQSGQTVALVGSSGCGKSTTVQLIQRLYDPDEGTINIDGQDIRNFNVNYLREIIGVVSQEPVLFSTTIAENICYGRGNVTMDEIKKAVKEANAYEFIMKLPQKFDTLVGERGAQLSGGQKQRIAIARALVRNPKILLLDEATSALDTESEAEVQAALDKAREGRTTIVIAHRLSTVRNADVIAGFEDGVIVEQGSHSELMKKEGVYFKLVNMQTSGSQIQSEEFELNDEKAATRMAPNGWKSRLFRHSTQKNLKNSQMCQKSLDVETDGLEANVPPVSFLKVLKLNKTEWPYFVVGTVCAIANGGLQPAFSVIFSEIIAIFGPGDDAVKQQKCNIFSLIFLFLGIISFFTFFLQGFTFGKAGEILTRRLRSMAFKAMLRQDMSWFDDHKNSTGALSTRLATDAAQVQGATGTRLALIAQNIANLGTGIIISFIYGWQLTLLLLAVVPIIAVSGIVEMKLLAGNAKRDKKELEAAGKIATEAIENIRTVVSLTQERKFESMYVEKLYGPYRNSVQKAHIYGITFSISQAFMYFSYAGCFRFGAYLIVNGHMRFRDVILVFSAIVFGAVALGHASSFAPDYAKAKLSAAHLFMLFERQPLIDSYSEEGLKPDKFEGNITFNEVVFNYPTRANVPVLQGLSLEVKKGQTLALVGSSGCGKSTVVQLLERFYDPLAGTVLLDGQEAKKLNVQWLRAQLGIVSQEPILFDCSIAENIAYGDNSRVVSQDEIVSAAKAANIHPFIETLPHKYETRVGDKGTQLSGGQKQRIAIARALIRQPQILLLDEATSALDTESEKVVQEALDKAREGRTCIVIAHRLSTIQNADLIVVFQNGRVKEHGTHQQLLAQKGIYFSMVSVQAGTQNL
UniProt P08183, whole entry: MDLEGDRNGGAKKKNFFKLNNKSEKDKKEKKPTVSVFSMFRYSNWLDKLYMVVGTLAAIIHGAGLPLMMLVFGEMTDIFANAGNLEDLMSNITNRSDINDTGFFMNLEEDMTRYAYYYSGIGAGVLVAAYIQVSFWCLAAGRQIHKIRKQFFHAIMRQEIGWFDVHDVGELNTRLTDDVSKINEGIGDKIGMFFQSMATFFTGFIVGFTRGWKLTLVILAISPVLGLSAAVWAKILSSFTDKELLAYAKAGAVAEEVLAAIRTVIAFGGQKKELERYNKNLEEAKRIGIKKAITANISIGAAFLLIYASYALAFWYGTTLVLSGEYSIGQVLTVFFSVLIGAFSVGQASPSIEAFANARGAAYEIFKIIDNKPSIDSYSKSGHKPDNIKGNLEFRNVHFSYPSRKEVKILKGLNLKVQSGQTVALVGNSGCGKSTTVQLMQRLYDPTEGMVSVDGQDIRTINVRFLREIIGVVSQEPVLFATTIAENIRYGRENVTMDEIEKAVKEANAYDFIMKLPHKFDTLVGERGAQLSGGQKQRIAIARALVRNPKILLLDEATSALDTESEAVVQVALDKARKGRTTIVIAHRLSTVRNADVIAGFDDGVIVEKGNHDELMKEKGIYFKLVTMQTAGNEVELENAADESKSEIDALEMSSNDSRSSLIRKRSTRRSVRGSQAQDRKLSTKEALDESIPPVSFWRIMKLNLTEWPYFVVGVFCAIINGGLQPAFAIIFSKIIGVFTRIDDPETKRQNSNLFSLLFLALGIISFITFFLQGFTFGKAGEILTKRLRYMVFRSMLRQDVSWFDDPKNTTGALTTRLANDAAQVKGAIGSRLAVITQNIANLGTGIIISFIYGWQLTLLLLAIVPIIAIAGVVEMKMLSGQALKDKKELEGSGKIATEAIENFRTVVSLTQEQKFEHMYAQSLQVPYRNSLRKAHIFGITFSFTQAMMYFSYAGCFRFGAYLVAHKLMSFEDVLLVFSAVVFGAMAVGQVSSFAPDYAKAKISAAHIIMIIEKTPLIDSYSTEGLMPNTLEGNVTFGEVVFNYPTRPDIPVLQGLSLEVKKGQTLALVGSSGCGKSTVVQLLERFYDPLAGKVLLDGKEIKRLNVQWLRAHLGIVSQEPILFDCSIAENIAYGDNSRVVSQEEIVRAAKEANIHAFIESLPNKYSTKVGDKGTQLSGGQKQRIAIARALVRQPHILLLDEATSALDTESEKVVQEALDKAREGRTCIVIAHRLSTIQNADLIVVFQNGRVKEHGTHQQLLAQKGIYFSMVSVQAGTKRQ

Legend:
[1] = ref FDA Liver Toxicity Knowledge Base (LTKB); cited from earlier work
human ABCB4 = molecular target: T1, human ABCB4 (Homo sapiens, UniProt P21439); assay: Inhibition of ABCB4-mediated digoxin transport, bidirectional assay in Abcb1KO-MDCKII-ABCB4 cells; type: cell-based; details: digoxin 1 µM probe
T1 construct: expressed in transfected cells; host or cells: Abcb1KO-MDCKII (canine kidney, Abcb1 knockout), lentiviral transduction, single clone

ABCB1 = ABCB1 (Homo sapiens, UniProt P08183); details: Y/N; cited from earlier work

CCCCc1oc2ccccc2c1C(=O)c1cc(I)c(OCCN(CC)CC)c(I)c1 [amiodarone]
DILI Concern [1]: Most DILI concern | Effect on ABCB4-mediated digoxin transport, in words (human ABCB4): no effect

NS(=O)(=O)c1cc(C(=O)O)c(NCc2ccco2)cc1Cl [furosemide]
ABCB1 Interactor (ABCB1): Conflicting information [65]
